Laboratory results from US9849194B2, “Compositions and methods for imaging and treatment” (New York University, priority 2014, dated 2017).

System: HeLa cells
Assay: Inhibition of HeLa cell growth, CellTiter-Blue
Format: cell-based
Conditions: 48 hours
Description: In vitro cell viability assay. The effect of Dox and Dox-CB[7]NPs was studied using the CellTiter-Blue® Cell Viability assay (CTB, Promega) which measures the metabolic activity of the cells. The reduction of the reagent dye resazurin into fluorescent resorufin due provides a measure of cell viability. Resorufin diffuses out of the cell into the medium after its formation. The fluorescent intensity of medium will indicate the toxicity of the drug as only viable cells have the ability to breakdown resazurin and its breakdown is proportional to the number of viable cells present. To determine the anti-cancer properties and efficacy of Dox-CB[7]NPs in Dox delivery, inhibition of HeLA cell growth with Dox-CB[7]NPs and with free Dox was studied.
Two 96 well plate of HeLa cells (˜5000 cells/100 μL) were prepared and incubated at 37° C. After 24 hours, DMEM from one of the well plates was removed and replaced with various concentrations of Dox solution ([Dox]=5 μM, 10 μM, 15 μM, 20 μM, 30 μM, and 50 μM, respectively). […] The fluorescence emission of the medium at 590 nm was measured. […]
The percentage of cell inhibition and cell viability was calculated using the following formula: Viability (%)=[(Ftreated−Fblank)/(Fcontrol−Fblank)]×100 Inhibition (%)=100−viability (%)

COc1cccc2c1C(=O)c1c(O)c3c(c(O)c1C2=O)C[C@@](O)(C(=O)CO)C[C@@H]3O[C@H]1C[C@H](N)[C@H](O)[C@H](C)O1 [Dox, Doxorubicin]
IC50: 3 µM
